# Laboratory results taken from PubChem BioAssay AID2685 (National Center for Advancing Translational Sciences (NCATS), 2010).
# The whole screen tested about 320,000 compounds, of which about 2,100 (0.66%) were called active. The shares of active, inactive and inconclusive entries below differ from those in the screen. The call rests on the fitted dose curve; in most records, active means well fitted inhibition curve with a large enough effect in the signal ratio, with a control signal flat (not every such curve was filed as active); inconclusive means small, poorly fitted or top-dose-only effect, or effect the other way, or a change in a side signal; inactive means flat fitted curve, though single readings scatter; the % refers to the signal ratio. A potency beside an inconclusive call is a rough fit, not a confirmed value.
# Assay: qHTS Assay for Lipid Storage Modulators in Drosophila S3 Cells
# Conditions: BODIPY lipid droplet fluorescence, 18-24 h, cells fed with added oleic acid; lipid storage change, negative = inhibition: at 46.1 µM (top of the series) unless noted
# Procedure, shortened: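 Drosophila S3 cells loaded with oleic acid (400 uM, as added) and compounds at several concentrations; lipid droplets imaged by 488-nm laser-scanning cytometry, 500–530 nm intensity and object ratio to cell channel. Percent activity normalized to 20 uM Triacsin C.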
# On the % scale 0 is the no-effect control and ±100 the full control effect; potency means the concentration at half of the fitted maximal effect.
Compound,"lipid storage change, negative = inhibition",Potency
Cc1ccc(S(=O)(=O)N2CCN(C(=O)CSc3nncs3)CC2)cc1,inconclusive: -14.8%,–
COc1ccc(Cl)cc1NC(=O)CN(C)C(=O)Cn1c(=O)oc2ccccc21,inconclusive: -16%,–
CN(C)c1ccc(NC(=O)CN2C3CCCC2CC(NC(=O)c2ccccc2)C3)cc1 (stereo not drawn),–,"inconclusive: 0.116 µM [falling, partial curve, poor fit]"
Oc1ccc(C=Nc2ccccc2-c2nc3ccccc3[nH]2)c(O)c1,inconclusive: -5.5%,–
O=C(CCS(=O)(=O)c1ccc(Cl)cc1)N1CCN(c2ccc(F)cc2)CC1,inconclusive: 17.7%,–
CCOC(=O)c1ccccc1NC(=S)N1CC(C)CC(C)C1 (stereo not drawn),inconclusive: 20.6%,–
Cc1ccc(S(=O)(=O)CCC(=O)OCC(=O)N2CC(=O)Nc3ccccc32)cc1,inconclusive: 53.7%,–
O=C(CN1C(=O)NC2(CCCC2)C1=O)N1CCN(c2cccc(C(F)(F)F)c2)CC1,inconclusive: -67.3%,–
CCOc1ccccc1NS(=O)(=O)c1ccc2c(c1)N(C)CCO2,–,active: 7.31 µM
CC(O)CNc1nc2c(c(=O)n(C)c(=O)n2C)n1CCc1ccccc1 (stereo not drawn),inconclusive: 14%,–
CCSc1ccc([C@@H]2[C@H]3C(=O)N(C)C(=O)[C@H]3[C@]3(C(=O)OC)CCCCN23)cc1OC,inconclusive: -20.7%,–
CC1=C(C(=O)Nc2ccccc2C)C(c2ccccc2)NC(=O)N1 (stereo not drawn),inconclusive: 4.53%,–
Fc1ccccc1N1CCN(CC2CCCCC2)CC1,–,"inconclusive: 29.1 µM [activator, single point]"
O=C(CSc1nc2ccccc2c(=O)n1NC(=O)c1ccccc1)c1ccccc1,–,"inconclusive: 5.17 µM [activator, partial curve]"
CN(Cc1c(F)cccc1Cl)C(=O)c1ccc(NS(=O)(=O)c2ccc3[nH]c(=O)[nH]c3c2)cc1,inconclusive,–
COc1ccc(CNC(=O)C2CCN(S(=O)(=O)c3ccc(-c4nn[nH]n4)cc3)CC2)cc1,inconclusive: -8.8%,–
CC(=O)Nc1ccc(S(=O)(=O)Nc2ccccc2N2CCOCC2)cc1Cl,inconclusive: 9.31%,–
CCCc1cc(=O)n2[nH]c(C)nc2n1,inconclusive: -30.5%,–
c1ccc(OCc2nnc3sc(-c4cccs4)nn23)cc1,–,"inconclusive: 3.66 µM [activator, partial curve]"
Cc1cc(NC(=O)CSc2nnc(CNc3cccc(C(F)(F)F)c3)n2Cc2ccco2)no1,inconclusive: -15.2%,–
CCCCn1c(=O)[nH]c(=O)c2c1nc(-c1ccccc1F)n2Cc1ccccc1OC,inconclusive: 14.1%,–
O=C(Nc1ccc(Cc2ccncc2)cc1)c1cc(F)c(F)cc1Cl,inconclusive: -2.96%,–
Cc1cc(Cl)ccc1NC(=S)NCCN1CCOCC1,–,"inconclusive: 0.0052 µM [activator, full curve, poor fit]"
Cc1cc([N+](=O)[O-])ccc1NC(=O)CN1CCN(Cc2ccccc2)CC1,–,"inconclusive: 20.6 µM [activator, single point]"
Cc1ccc(-n2c(-c3ccc(Cl)cc3)n[nH]c2=S)cc1,inconclusive: -57.1%,–
Cc1cc([N+](=O)[O-])nn1CC(=O)Nc1ccc(F)cc1,–,"inconclusive: 0.0046 µM [cytotoxic, full curve, poor fit]"
C=CCNc1oc(C2CCCC2)nc1C#N,inconclusive: -24.9%,–

Compound,"lipid storage change, negative = inhibition",Potency
CC(C)CC(=O)Nc1ccc(Nc2ccccc2)cc1,inconclusive: -17.5%,–
COc1ccccc1CCN=C(N)NS(=O)(=O)c1ccccc1,inconclusive: 7.6%,–
CCS(=O)(=O)C(C)(CCl)C(=O)Nc1ccc(C(=O)OC)cc1 (stereo not drawn),inconclusive: 21.8%,–
COc1cc(/C=C(\C#N)C(=O)NC(C)C)cc(Cl)c1O,inconclusive: -22.8%,–
Cc1c(C(=O)NCc2ccc(F)cc2)oc2ccc(S(=O)(=O)N3CCOCC3)cc12,inactive,–
CC(=O)NC(NC(=S)Nc1cccc(Br)c1)C(Cl)(Cl)Cl (stereo not drawn),inconclusive: -18.7%,–
CCOc1ccccc1C(=O)NCC(=O)NCCCc1ccccc1,inconclusive: 1.57%,–
Cc1cc(C)cc(Nc2ncc3c(n2)CCCC3=O)c1,–,"inconclusive: 1.16 µM [activator, full curve, poor fit]"
Cc1cc(-n2c(SCCC#N)nnc2-c2cccnc2)ccc1Cl,inconclusive: -75.1%,–
CCc1cc2c3c(c1)/C(=C1/SC(N)=NC1=O)C(=O)N3C(C)(C)C=C2C,inconclusive: -37.8%,–
Cc1ccc[n+](CC(=O)N2CCCc3ccccc32)c1,inactive,–
Cc1ccc(CN(Cc2ccco2)C(=S)NCC(=O)NC2CC2)cc1,inconclusive: 4.1%,–
Cc1cc(NC(=O)CSc2n[nH]c(-c3ccc(Cl)cc3Cl)n2)no1,inconclusive: -6.98%,–
O=C(Nc1ccc2[nH]ncc2c1)c1ccc(F)cc1,inconclusive: 63.8%,–
COc1ccc(CC(=O)NC2CCCCCC2)c(OC)c1,inconclusive: 213%,–
O=C(CCc1ccc(S(=O)(=O)N2CCOCC2)cc1)NCCc1ccccn1,inconclusive: -3.06%,–
Cn1cc(CN2CCN(CC(C)(C)C)C(CCO)C2)c2ccccc21 (stereo not drawn),–,"inconclusive: 0.651 µM [activator, single point]"
O=c1[nH]c2ccc(S(=O)(=O)N3CCCC3)cc2[nH]1,inconclusive: -128%,–
O=C(NC1CCN(S(=O)(=O)c2ccc(F)cc2)CC1)c1cccnc1,–,"inconclusive: 1.16 µM [falling, partial curve, poor fit]"
O=C(COc1ccc(Br)cc1Cl)NC(=O)NCc1ccccc1,–,"inconclusive: 29.1 µM [activator, partial curve, poor fit]"
CC(C)CNC(=O)CC1Nc2ccccc2NC1=O (stereo not drawn),–,active: 10.3 µM
CC(=O)c1c[nH]c(C(=O)NCc2cccc(C(F)(F)F)c2)c1,inconclusive: 17.9%,–
[O-][N+]1=C(c2cccs2)CN(O)C1,–,"inconclusive: 32.6 µM [falling, single point]"
CC1CCc2c(sc(NC(=O)/C=C/c3cccs3)c2C(=O)O)C1 (stereo not drawn),–,"inconclusive: 29.1 µM [falling, single point]"
O=C(c1ccc(S(=O)(=O)NCc2ccco2)cc1)N1CCN(c2ccc(F)cc2)CC1,–,"inconclusive: 0.184 µM [falling, full curve, poor fit]"
COCCn1cnc2c1c(=O)n(Cc1ccc(Br)cc1)c(=O)n2Cc1ccccc1,inconclusive: -72.1%,–

# Among those listed so far, these contain a nitro group on carbon:
Compound,"lipid storage change, negative = inhibition",Potency
Cc1cc([N+](=O)[O-])ccc1NC(=O)CN1CCN(Cc2ccccc2)CC1,–,"inconclusive: 20.6 µM [activator, single point]"
Cc1cc([N+](=O)[O-])nn1CC(=O)Nc1ccc(F)cc1,–,"inconclusive: 0.0046 µM [cytotoxic, full curve, poor fit]"
